Experimental data taken from the supplement of paper PMC10849652.
This is one part of the list.

Chains of the proteins cited; added tags and fusions are not shown. Lines headed by an entry give the natural chain unless they say otherwise; changes in a name come on top.
UniProt Q9GZR2: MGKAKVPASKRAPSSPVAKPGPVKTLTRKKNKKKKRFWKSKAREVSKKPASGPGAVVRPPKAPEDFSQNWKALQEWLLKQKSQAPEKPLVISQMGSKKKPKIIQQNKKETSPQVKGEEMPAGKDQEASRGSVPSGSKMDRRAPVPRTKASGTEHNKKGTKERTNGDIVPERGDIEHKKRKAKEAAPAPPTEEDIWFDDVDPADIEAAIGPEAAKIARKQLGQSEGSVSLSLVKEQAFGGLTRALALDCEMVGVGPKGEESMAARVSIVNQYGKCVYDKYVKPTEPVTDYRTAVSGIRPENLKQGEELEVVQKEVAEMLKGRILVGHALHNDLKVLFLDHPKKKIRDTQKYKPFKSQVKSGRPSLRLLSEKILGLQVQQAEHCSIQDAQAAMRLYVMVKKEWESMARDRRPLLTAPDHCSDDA
UniProt Q96PM5: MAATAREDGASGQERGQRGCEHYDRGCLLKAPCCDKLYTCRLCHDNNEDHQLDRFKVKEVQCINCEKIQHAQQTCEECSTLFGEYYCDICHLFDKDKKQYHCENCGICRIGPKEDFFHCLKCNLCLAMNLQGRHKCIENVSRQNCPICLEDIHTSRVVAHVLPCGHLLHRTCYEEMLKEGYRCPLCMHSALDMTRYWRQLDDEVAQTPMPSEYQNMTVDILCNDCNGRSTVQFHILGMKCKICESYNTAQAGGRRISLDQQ
UniProt P35251: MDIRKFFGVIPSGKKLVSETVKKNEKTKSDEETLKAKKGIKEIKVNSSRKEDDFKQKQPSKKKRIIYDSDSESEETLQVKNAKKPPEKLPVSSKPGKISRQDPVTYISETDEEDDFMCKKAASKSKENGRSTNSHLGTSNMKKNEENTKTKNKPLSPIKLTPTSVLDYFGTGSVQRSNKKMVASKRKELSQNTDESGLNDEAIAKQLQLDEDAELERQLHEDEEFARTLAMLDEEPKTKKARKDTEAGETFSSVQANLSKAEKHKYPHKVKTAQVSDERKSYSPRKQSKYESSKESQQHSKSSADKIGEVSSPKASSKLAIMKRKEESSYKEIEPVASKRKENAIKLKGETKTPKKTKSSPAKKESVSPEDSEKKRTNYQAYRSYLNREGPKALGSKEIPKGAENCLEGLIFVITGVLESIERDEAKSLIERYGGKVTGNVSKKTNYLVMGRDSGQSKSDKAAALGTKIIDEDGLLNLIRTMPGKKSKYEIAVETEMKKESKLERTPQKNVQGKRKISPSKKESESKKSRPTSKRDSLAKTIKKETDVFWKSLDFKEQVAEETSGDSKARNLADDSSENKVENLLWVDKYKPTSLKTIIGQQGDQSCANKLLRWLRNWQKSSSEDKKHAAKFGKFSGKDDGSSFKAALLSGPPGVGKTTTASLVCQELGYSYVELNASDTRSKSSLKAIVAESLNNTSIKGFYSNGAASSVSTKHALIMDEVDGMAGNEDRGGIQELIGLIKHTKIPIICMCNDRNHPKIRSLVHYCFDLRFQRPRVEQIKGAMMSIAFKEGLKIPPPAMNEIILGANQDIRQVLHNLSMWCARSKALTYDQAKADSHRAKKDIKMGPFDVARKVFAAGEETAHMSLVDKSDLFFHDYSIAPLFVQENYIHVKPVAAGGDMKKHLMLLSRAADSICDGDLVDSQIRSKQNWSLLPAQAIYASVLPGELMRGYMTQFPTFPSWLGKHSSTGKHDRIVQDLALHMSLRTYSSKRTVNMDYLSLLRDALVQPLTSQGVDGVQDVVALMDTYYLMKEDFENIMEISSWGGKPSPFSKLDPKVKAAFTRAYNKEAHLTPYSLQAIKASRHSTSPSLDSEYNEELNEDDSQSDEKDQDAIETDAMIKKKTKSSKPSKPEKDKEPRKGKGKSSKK
UniProt Q8IZV5: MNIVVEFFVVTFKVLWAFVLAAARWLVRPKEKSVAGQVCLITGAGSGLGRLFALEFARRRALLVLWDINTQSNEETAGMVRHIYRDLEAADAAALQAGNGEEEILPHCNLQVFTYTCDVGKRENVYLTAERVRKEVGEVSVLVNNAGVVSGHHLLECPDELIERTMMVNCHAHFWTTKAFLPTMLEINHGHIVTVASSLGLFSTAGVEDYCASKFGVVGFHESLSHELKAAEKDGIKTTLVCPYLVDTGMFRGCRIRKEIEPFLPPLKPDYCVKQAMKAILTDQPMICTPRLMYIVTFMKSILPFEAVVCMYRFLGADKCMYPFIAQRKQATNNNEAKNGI
UniProt Q15283: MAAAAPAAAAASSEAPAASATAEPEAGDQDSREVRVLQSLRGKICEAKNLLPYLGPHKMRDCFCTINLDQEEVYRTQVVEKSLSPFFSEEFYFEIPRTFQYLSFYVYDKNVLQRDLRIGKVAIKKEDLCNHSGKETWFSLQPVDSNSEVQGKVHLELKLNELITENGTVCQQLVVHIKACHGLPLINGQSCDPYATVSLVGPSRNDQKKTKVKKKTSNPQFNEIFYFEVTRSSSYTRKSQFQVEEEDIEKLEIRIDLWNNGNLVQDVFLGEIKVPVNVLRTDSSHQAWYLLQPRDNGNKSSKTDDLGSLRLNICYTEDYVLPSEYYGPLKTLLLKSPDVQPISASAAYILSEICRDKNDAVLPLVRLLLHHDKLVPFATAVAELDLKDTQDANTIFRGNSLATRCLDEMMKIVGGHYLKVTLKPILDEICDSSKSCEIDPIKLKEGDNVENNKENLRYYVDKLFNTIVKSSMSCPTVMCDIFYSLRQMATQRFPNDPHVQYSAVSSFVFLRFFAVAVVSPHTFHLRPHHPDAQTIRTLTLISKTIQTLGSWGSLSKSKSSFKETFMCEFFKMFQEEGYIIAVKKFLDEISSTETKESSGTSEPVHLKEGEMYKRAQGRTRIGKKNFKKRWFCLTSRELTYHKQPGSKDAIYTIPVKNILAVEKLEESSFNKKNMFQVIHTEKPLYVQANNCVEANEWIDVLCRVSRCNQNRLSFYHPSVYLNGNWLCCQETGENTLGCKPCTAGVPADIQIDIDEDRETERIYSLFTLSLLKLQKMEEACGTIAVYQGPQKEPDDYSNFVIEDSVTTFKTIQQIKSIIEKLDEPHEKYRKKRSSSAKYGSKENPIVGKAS
UniProt Q96PK6: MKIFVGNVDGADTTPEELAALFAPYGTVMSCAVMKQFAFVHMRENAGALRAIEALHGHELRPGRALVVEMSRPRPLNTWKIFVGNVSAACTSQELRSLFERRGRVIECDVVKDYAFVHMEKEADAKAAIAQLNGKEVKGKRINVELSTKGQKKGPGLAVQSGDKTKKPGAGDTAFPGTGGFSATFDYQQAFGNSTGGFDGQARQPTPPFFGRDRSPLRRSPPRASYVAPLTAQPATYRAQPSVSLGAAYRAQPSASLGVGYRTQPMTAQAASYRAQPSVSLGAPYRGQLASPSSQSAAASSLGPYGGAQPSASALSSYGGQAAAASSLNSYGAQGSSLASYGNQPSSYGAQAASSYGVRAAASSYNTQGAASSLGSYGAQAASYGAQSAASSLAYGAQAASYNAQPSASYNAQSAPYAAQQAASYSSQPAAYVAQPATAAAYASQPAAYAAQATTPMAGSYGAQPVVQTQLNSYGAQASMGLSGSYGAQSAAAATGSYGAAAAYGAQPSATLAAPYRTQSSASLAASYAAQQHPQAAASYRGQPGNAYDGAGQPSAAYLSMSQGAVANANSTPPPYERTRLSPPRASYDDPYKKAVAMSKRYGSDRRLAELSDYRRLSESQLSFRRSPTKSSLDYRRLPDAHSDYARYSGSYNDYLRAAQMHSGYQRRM
UniProt Q5T481: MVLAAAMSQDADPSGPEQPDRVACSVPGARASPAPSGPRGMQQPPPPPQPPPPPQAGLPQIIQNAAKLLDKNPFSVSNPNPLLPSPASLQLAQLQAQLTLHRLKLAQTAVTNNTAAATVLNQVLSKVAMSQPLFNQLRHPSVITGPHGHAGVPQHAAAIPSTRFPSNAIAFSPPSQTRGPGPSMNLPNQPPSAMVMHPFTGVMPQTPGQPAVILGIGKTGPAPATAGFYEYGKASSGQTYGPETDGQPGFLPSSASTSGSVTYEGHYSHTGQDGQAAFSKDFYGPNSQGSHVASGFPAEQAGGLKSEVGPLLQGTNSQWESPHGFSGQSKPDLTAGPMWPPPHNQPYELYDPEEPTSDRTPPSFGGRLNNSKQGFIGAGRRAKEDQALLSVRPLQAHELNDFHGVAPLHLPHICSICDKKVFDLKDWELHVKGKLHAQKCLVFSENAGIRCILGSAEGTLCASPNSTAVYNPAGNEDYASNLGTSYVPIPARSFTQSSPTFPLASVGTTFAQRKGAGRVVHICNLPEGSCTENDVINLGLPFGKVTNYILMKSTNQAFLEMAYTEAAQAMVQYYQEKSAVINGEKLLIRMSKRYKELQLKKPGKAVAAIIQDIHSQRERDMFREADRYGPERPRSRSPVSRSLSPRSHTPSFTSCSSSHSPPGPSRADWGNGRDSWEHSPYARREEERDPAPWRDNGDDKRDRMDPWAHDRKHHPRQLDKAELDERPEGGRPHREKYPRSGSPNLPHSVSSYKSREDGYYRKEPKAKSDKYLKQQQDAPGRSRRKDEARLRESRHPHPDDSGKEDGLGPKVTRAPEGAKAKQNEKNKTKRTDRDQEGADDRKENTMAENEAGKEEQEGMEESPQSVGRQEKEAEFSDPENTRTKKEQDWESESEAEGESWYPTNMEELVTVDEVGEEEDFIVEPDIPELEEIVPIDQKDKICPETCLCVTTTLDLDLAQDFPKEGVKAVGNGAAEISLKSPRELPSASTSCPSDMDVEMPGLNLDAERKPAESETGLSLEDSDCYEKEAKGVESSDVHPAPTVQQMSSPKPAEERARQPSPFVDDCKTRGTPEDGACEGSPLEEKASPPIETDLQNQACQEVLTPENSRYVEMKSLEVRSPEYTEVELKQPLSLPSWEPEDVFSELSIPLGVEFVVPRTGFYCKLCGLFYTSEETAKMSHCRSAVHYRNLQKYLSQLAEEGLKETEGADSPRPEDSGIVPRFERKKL
UniProt Q8N0T1: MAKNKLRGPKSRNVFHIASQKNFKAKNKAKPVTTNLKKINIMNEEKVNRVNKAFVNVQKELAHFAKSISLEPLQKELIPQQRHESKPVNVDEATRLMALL
UniProt Q6PCD5: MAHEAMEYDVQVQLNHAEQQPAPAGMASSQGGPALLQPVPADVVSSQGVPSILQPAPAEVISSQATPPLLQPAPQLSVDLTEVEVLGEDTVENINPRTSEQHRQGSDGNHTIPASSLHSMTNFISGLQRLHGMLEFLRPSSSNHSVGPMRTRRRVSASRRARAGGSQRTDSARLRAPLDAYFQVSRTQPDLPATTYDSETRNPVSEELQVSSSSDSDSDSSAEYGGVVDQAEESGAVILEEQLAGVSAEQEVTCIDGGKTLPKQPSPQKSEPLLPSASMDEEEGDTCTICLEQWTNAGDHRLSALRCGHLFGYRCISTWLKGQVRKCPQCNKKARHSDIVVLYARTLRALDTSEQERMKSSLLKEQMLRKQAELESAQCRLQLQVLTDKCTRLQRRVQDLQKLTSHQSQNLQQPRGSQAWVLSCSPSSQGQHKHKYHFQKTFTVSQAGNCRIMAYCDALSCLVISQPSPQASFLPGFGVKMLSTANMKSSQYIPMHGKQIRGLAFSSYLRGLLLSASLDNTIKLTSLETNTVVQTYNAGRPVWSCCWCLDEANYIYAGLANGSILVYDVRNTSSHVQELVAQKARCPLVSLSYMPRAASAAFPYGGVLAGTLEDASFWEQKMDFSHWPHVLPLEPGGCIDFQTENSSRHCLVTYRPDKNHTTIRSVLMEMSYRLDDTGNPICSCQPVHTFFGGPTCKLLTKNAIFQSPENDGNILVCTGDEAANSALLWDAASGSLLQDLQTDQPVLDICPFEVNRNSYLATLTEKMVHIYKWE
UniProt Q5RL73: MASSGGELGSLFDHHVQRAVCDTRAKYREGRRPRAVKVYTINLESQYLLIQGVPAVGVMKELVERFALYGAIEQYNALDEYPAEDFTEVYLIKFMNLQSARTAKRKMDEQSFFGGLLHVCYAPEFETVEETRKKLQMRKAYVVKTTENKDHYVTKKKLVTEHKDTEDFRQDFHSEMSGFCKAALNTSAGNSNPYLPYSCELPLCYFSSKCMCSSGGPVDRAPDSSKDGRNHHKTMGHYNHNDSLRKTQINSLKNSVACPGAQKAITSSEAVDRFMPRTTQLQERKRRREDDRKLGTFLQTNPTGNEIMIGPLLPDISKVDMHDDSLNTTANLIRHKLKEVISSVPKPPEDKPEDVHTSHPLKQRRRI
UniProt Q96IZ5: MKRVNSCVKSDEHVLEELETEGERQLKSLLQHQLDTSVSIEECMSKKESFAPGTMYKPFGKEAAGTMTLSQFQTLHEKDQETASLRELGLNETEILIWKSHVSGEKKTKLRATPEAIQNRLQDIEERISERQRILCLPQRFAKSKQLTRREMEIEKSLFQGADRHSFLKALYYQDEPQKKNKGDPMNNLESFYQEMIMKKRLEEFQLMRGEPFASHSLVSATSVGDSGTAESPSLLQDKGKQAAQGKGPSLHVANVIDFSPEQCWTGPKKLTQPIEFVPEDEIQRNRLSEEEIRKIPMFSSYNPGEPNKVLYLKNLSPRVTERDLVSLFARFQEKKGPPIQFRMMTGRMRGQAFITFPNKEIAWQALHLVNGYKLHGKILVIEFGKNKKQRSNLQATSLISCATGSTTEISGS

Tests used:
Assay in all cases: log2 fold change, soluble protein after heating vs DMSO (PISA); higher = thermal stabilisation; K562 lysate, 10 uM; active = over 0.2 and 3.5 SD of the protein, either way, in both replicates (recomputed)
erlotinib = compound: C#Cc1cccc(Nc2ncnc3cc(OCCOC)c(OCCOC)cc23)c1 [erlotinib]
Procedure, shortened: (§1)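 A 30 min treatment with 10 μM compound was applied to crude K562 extract at 1 mg/mL protein in PBS pH 7.4 with 1 mM MgCl2. Heating for 3 min spanned 48°C-58°C, after which aliquots were pooled, adjusted to 0.5% NP-40 at 4°C and spun at 21,000xg for 90 min. TMTpro 16plex LC-MS/MS of the supernatant, with channel sums equalised, gave values recorded as log-two fold change in thermal stability against solvent controls, from duplicates.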

[1] = compound: C/C(=N\NC(=O)C1=CC(=CC=C1)S(=O)(=O)N2CCOCC2)/C3=C(C=CC(=C3)Cl)O
Procedure, shortened: as §1

[2] = compound: C1=CC(=CC=C1C2=NC3=C(N2)C=C(C=C3)C(=O)N)OC4=CC=C(C=C4)Cl
Procedure, shortened: as §1

[3] = compound: C1=CC2=C(C=CC(=C2)/C=C\3/C(=O)NC(=NCC4=CC=CS4)S3)N=C1
Procedure, shortened: as §1

[4] = compound: C1=CC2=NC=CN=C2C=C1/C=C/3\C(=O)NC(=O)S3
Procedure, shortened: as §1

[5] = compound: C1=CC=C(C=C1)C2=NC(=C(N2)C3=CC=NC=C3)C4=CC(=C(C=C4)Cl)O
Procedure, shortened: as §1

[6] = compound: C1=CC=C2C(=C1)C3=NNC4=CC=CC(=C43)C2=O
Procedure, shortened: as §1

[7] = compound: C1CCN(C1)C(=O)NC2=CC=CC(=C2)NC3=NC=C(C(=N3)NCCC4=CN=CN4)Br
Procedure, shortened: as §1

[8] = compound: C1CN(CCC1(CC2=CC=C(C=C2)Cl)N)C3=NC=NC4=C3C=CN4
Procedure, shortened: as §1

IRAK-1-4 Inhibitor I = compound: C1COCCN1CCN2C3=CC=CC=C3N=C2NC(=O)C4=CC(=CC=C4)[N+](=O)[O-] [IRAK-1-4 Inhibitor I]
Procedure, shortened: as §1

Measured: log2 fold change

RBM28 (UniProt Q9NW13)
inactive: erlotinib -0.047 | [1] -0.01 | [2] -0.062 | [3] -0.019 | [4] -0.007 | [5] 0.011 | [6] 0.027 | [7] -0.021 | [8] -0.024 | IRAK-1-4 Inhibitor I -0.032

REXO4 (UniProt Q9GZR2)
inactive: erlotinib -0.041 | [1] -0.195 | [2] -0.041 | [3] -0.084 | [4] -0.052 | [5] 0.027 | [6] -0.033 | [7] -0.022 | [8] 0.003 | IRAK-1-4 Inhibitor I -0.027

RCC1 isoform 2 (UniProt P18754)
inactive: erlotinib 0.016 | [1] 0.005 | [2] -0.033 | [3] 0 | [4] 0.017 | [5] 0.007 | [6] -0.024 | [7] -0.008 | [8] -0.043 | IRAK-1-4 Inhibitor I -0.022

RCHY1 (UniProt Q96PM5)
inactive: erlotinib 0.048 | [1] -0.01 | [2] -0.014 | [3] 0.05 | [4] -0.005 | [5] 0.006 | [6] 0.03 | [7] -0.054 | [8] 0.006 | IRAK-1-4 Inhibitor I -0.051

RBBP9 (UniProt O75884)
inactive: erlotinib -0.14 | [1] 0.161 | [2] -0.063 | [3] 0.058 | [4] -0.034 | [5] 0.115 | [6] 0.045 | IRAK-1-4 Inhibitor I -0.041

RENBP (UniProt P51606)
inactive: erlotinib -0.004 | [1] -0.006 | [2] -0.01 | [3] 0.001 | [4] 0.021 | [5] -0.032 | [6] 0.009 | [7] -0.011 | [8] 0.031 | IRAK-1-4 Inhibitor I 0.002

RBCK1 (UniProt Q9BYM8)
inactive: erlotinib 0.03 | [1] 0.063 | [2] 0.002 | [3] 0.052 | [4] 0.029 | [5] -0.052 | [6] -0.05 | [7] 0.024 | [8] -0.034 | IRAK-1-4 Inhibitor I 0.018

RBM23 isoform 2 (UniProt Q86U06)
inactive: erlotinib -0.056 | [1] 0.007 | [2] 0.012 | [3] -0.106 | [4] 0.148 | [5] -0.052 | [6] 0.001 | [7] -0.175 | [8] 0.091 | IRAK-1-4 Inhibitor I -0.004

RFC1 (UniProt P35251)
inactive: erlotinib -0.18 | [1] -0.017 | [2] -0.255 | [3] -0.053 | [4] -0.066 | [5] 0.062 | [6] -0.007 | [7] 0.002 | [8] -0.013 | IRAK-1-4 Inhibitor I -0.048

RBBP5 (UniProt Q15291)
inactive: erlotinib 0.005 | [1] -0.037 | [2] 0.028 | [3] -0.009 | [4] -0.035 | [5] -0.002 | [6] 0.006 | [7] 0 | [8] -0.005 | IRAK-1-4 Inhibitor I 0

RDH10 (UniProt Q8IZV5)
inactive: erlotinib 0.043 | [1] 0.001 | [2] -0.019 | [3] 0.087 | [4] -0.028 | [5] -0.022 | [6] -0.013 | [7] 0.024 | [8] -0.023 | IRAK-1-4 Inhibitor I 0.001

RASA2 (UniProt Q15283)
inactive: erlotinib 0.016 | [1] -0.001 | [2] -0.054 | [3] -0.071 | [4] -0.028 | [5] 0.018 | [6] -0.069 | [7] -0.024 | [8] 0.028 | IRAK-1-4 Inhibitor I -0.003

RBM39 (UniProt Q14498)
inactive: erlotinib 0.053 | [1] -0.017 | [2] -0.074 | [3] 0.001 | [4] -0.102 | [5] -0.03 | [6] -0.015 | [7] -0.018 | [8] -0.013 | IRAK-1-4 Inhibitor I -0.078

RBM14 (UniProt Q96PK6)
inactive: erlotinib 0.005 | [1] 0.114 | [2] 0.013 | [3] -0.003 | [4] 0.06 | [5] -0.08 | [6] -0.056 | [7] 0.003 | [8] -0.051 | IRAK-1-4 Inhibitor I -0.009

RBM20 (UniProt Q5T481)
inactive: erlotinib 0.052 | [1] -0.442 | [2] 0.002 | [3] -0.236 | [4] -0.157 | [5] -0.181 | [6] -0.393 | IRAK-1-4 Inhibitor I 0.263

RBIS (UniProt Q8N0T1)
inactive: erlotinib 0.028 | [1] -0.093 | [2] 0.012 | [3] -0.031 | [4] -0.006 | [5] -0.097 | [6] 0.124 | [7] -0.029 | [8] 0.026 | IRAK-1-4 Inhibitor I 0.173

RASA3 (UniProt Q14644)
inactive: erlotinib 0.02 | [1] -0.089 | [2] 0.045 | [3] -0.001 | [4] 0.046 | [5] 0.021 | [6] 0.004 | [7] -0.043 | [8] -0.005 | IRAK-1-4 Inhibitor I 0.02

RBSN (UniProt Q9H1K0)
inactive: erlotinib -0.067 | [1] -0.215 | [2] 0.004 | [3] -0.014 | [4] -0.004 | [5] 0.005 | [6] 0.043 | [7] 0.015 | [8] 0.063 | IRAK-1-4 Inhibitor I 0.025

RFWD3 (UniProt Q6PCD5)
inactive: erlotinib -0.12 | [1] 0.005 | [2] 0.048 | [3] -0.061 | [4] 0.062 | [5] 0.029 | [6] -0.039 | [7] -0.086 | [8] 0.053 | IRAK-1-4 Inhibitor I 0.054

RCE1 (UniProt Q9Y256)
inactive: erlotinib 0.242 | [1] -0.503 | [2] -0.051 | [3] 0.069 | [4] -0.022 | [5] -0.037 | [6] -0.308 | [7] 0.046 | [8] -0.049 | IRAK-1-4 Inhibitor I 0.034

RECQL5 (UniProt O94762)
inactive: erlotinib 0.046 | [1] -0.093 | [2] 0.282 | [3] 0.083 | [4] 0.005 | [5] -0.002 | [6] 0.012 | [7] -0.062 | [8] 0.036 | IRAK-1-4 Inhibitor I 0.006

RBM48 isoform 2 (UniProt Q5RL73)
inactive: erlotinib 0.011 | [1] 0.079 | [2] 0.133 | [3] 0.187 | [5] 0.065 | [6] -0.009 | [7] 0.033 | [8] -0.078 | IRAK-1-4 Inhibitor I 0.08

REEP3 (UniProt Q6NUK4)
inactive: erlotinib 0.017 | [1] -0.049 | [2] 0.016 | [3] 0.015 | [4] -0.123 | [5] 0.043 | [6] -0.003 | IRAK-1-4 Inhibitor I -0.05

RBL1 (UniProt P28749)
inactive: erlotinib 0.088 | [1] 0.084 | [2] 0.033 | [3] 0.07 | [4] 0.039 | [5] -0.01 | [6] -0.054 | [7] -0.044 | [8] 0.076 | IRAK-1-4 Inhibitor I -0.017

RASA1 (UniProt P20936)
inactive: erlotinib 0.024 | [1] 0.014 | [2] -0.007 | [3] -0.008 | [4] 0.009 | [5] -0.004 | [6] 0.01 | [7] -0.052 | [8] 0.041 | IRAK-1-4 Inhibitor I 0.019

Reprinted at random: two records from the list
RBIS (UniProt Q8N0T1)
inactive: erlotinib 0.028 | [1] -0.093 | [2] 0.012 | [3] -0.031 | [4] -0.006 | [5] -0.097 | [6] 0.124 | [7] -0.029 | [8] 0.026 | IRAK-1-4 Inhibitor I 0.173

RCE1 (UniProt Q9Y256)
inactive: erlotinib 0.242 | [1] -0.503 | [2] -0.051 | [3] 0.069 | [4] -0.022 | [5] -0.037 | [6] -0.308 | [7] 0.046 | [8] -0.049 | IRAK-1-4 Inhibitor I 0.034

Continued:

RCC2 (UniProt Q9P258)
inactive: erlotinib -0.026 | [1] 0.023 | [2] -0.021 | [3] -0.019 | [4] -0.026 | [5] -0.053 | [6] 0.008 | [7] -0.003 | [8] 0.017 | IRAK-1-4 Inhibitor I 0.005

RBM41 (UniProt Q96IZ5)
inactive: [4] -0.018

RBM18 (UniProt Q96H35)
inactive: [1] -0.133 | [3] -0.222 | [5] -0.006 | [6] -0.049 | [7] -0.053 | [8] 0.086 | IRAK-1-4 Inhibitor I 0.03

RBMXL1 (UniProt Q96E39)
inactive: [1] 0.078 | [3] -0.203 | [6] -0.027 | [7] -0.048 | [8] 0.076

RBL2 (UniProt Q08999)
inactive: [4] -0.113 | [5] -0.01 | [7] -0.092 | [8] 0.015 | IRAK-1-4 Inhibitor I 0.001

RDH11 (UniProt Q8TC12)
inactive: erlotinib 0.018 | [1] 0.087 | [2] -0.02 | [3] 0.015 | [5] 0.006 | [6] -0.065 | [7] -0.037 | [8] 0.063 | IRAK-1-4 Inhibitor I 0.012

RBBP5 isoform 2 (UniProt Q15291)
inactive: [1] 0.081 | [3] 0.057 | [4] -0.01 | [5] 0.166 | [6] 0.116 | [7] 0.206 | [8] 0.121 | IRAK-1-4 Inhibitor I -0.282
